Measured values published in PMC8445485.
These are yes or no findings as the source states them, for the method shown. In cells and extracts the contact can be indirect. Some binding calls cover weakened binding; strength is not graded here. Tags and fused reporters may be left off the sequences shown.

T1: Flag-tagged RIG-I full length (UniProt O95786)
T1 sequence: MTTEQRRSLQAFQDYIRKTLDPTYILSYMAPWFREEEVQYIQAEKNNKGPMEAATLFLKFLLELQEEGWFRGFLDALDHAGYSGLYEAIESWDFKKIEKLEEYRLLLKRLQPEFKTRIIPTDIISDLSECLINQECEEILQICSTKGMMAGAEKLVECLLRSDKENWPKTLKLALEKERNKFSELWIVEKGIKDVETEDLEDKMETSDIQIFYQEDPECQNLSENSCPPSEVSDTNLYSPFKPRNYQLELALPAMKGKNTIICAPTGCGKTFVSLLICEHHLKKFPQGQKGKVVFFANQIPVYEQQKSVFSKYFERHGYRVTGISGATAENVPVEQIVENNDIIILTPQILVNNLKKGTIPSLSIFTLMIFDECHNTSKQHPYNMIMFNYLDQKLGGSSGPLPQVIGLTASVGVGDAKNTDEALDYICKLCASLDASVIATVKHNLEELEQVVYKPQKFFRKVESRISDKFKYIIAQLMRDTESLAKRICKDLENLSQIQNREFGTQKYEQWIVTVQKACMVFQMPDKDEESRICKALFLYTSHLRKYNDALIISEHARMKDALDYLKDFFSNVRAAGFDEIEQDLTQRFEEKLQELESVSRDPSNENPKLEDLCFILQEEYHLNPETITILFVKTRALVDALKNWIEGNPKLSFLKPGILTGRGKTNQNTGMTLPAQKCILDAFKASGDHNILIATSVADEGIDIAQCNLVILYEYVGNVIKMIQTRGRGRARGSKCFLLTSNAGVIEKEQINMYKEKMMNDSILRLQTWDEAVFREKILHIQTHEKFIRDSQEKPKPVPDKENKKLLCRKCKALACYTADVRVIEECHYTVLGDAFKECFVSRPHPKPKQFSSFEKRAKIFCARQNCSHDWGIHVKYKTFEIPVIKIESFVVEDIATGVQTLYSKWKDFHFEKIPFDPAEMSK


Biological target: T1, Flag-tagged RIG-I full length
Assay: co-IP; HEK293T transfected with RIG-I and TRIM4, TRIM25 or RNF135 for 24 hr, with or without exogenous LSD1 (Fig 5E) or after siNC or LSD1 siRNA (Fig 5F); RIG-I as bait; immunoblot

binding | Binder
binds | HA-tagged TRIM4 (enzyme, UniProt Q9C037 1-500) MEAEDIQEELTCPICLDYFQDPVSIECGHNFCRGCLHRNWAPGGGPFPCPECRHPSAPAALRPNWALARLTEKTQRRRLGPVPPGLCGRHWEPLRLFCEDDQRPVCLVCRESQEHQTHAMAPIDEAFESYRTGNFDIHVDEWKRRLIRLLLYHFKQEEKLLKSQRNLVAKMKKVMHLQDVEVKNATQWKDKIKSQRMRISTEFSKLHNFLVEEEDLFLQRLNKEEEETKKKLNENTLKLNQTIASLKKLILEVGEKSQAPTLELLQNPKEVLTRSEIQDVNYSLEAVKVKTVCQIPLMKEMLKRFQVAVNLAEDTAHPKLVFSQEGRYVKNTASASSWPVFSSAWNYFAGWRNPQKTAFVERFQHLPCVLGKNVFTSGKHYWEVESRDSLEVAVGVCREDVMGITDRSKMSPDVGIWAIYWSAAGYWPLIGFPGTPTQQEPALHRVGVYLDRGTGNVSFYSAVDGVHLHTFSCSSVSRLRPFFWLSPLASLVIPPVTDRK
binds | HA-tagged RNF135 (enzyme, UniProt Q8IUD6 1-432) MAGLGLGSAVPVWLAEDDLGCIICQGLLDWPATLPCGHSFCRHCLEALWGARDARRWACPTCRQGAAQQPHLRKNTLLQDLADKYRRAAREIQAGSDPAHCPCPGSSSLSSAAARPRRRPELQRVAVEKSITEVAQELTELVEHLVDIVRSLQNQRPLSESGPDNELSILGKAFSSGVDLSMASPKLVTSDTAAGKIRDILHDLEEIQEKLQESVTWKEAPEAQMQGELLEAPSSSSCPLPDQSHPALRRASRFAQWAIHPTFNLKSLSCSLEVSKDSRTVTVSHRPQPYRWSCERFSTSQVLCSQALSSGKHYWEVDTRNCSHWAVGVASWEMSRDQVLGRTMDSCCVEWKGTSQLSAWHMVKETVLGSDRPGVVGIWLNLEEGKLAFYSVDNQEKLLYECTISASSPLYPAFWLYGLHPGNYLIIKQVKV
